{"source": "paper PMC2288786", "about": "(BMC Structural Biology, 2008)", "system": "calmodulin", "test": "Small-angle X-ray scattering of free CaM and complex", "design": "species or system vertebrate", "details": "SAXS, 5-fold molar excess of peptide in complex samples"}
{"substance": "calmodulin [CaM]", "values": [{"measurement": "Dmax, maximum size", "setting": "GNOM", "result": "7.0 ± 0.5", "unit": "nm"}, {"measurement": "Rg, radius of gyration", "setting": "Guinier approximation", "result": "2.22 ± 0.05", "unit": "nm"}, {"measurement": "Vp, excluded volume", "result": "34 ± 2", "unit": "nm^3"}]}
